Source: the supplement of paper PMC12024529
Where a name gives a salt, the structure may show the parent alone. The list shows a part of the results. Plates or batches differ in their baseline, so values are only roughly comparable.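 The cells are HEK293 lines stably expressing B-domain-deleted factor VIII fused to Gaussia luciferase, either wild type or a misfolding-prone missense mutant. Each score is mean luminescence from triplicate wells minus the DMSO mean, divided by the DMSO standard deviation; a score of 2 or more counts as a hit, and low scores may reflect lower secretion or poorer cell viability.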

What follows are compounds tested on HEK293 WT BDD-FVIII-Gluc (assay: secreted FVIII-Gluc luciferase Z-score vs DMSO control; higher = more FVIII-Gluc secretion). Details: 5 µM; 24 h.
In the case of `Cc1nnc(NS(=O)(=O)c2ccc(N)cc2)s1` [Sulfamethizole (Proklar)], the “secreted FVIII-Gluc luciferase Z-score” value is reported as inactive: -2.18. `CCCCCCCCCCCC[N+](C)(C)CCOc1ccccc1` [Domiphen Bromide] was tested, and the “secreted FVIII-Gluc luciferase Z-score” value was inactive: 0.143. For `CN(C)CCCN1c2ccccc2CCc2ccccc21` [Imipramine HCl], the “secreted FVIII-Gluc luciferase Z-score” value was inactive: -0.903. With `Cc1c(O)cccc1C(=O)N[C@@H](CSc1ccccc1)[C@H](O)CN1C[C@H]2CCCC[C@H]2C[C@H]1C(=O)NC(C)(C)C` [Nelfinavir Mesylate] the “secreted FVIII-Gluc luciferase Z-score” value was inactive: -2.23. In the case of `CCOC(=O)C1=C(C)NC(C)=C(C(=O)OCC)C1c1ccccc1/C=C/C(=O)OC(C)(C)C` [Lacidipine (Lacipil, Motens)], the “secreted FVIII-Gluc luciferase Z-score” value is reported as inactive: -1.46. With `CN1C(CCl)Nc2cc(Cl)c(S(N)(=O)=O)cc2S1(=O)=O` (configuration not stated) [Methyclothiazide] the “secreted FVIII-Gluc luciferase Z-score” value was inactive: -0.473. With `COC(=O)C1=C(C)NC(C)=C(C(=O)OC(C)C)C1c1cccc2nonc12` (configuration not stated) [Isradipine (Dynacirc)] the “secreted FVIII-Gluc luciferase Z-score” value was inactive: -0.0407. In the case of `Clc1ccccc1C(c1ccccc1)(c1ccccc1)n1ccnc1` [Clotrimazole (Canesten)], the “secreted FVIII-Gluc luciferase Z-score” value is reported as inactive: -1.93. In the case of `CC(C)[C@H](N)C(=O)OCCOCn1cnc2c(=O)nc(N)[nH]c21` [Valaciclovir HCl], the “secreted FVIII-Gluc luciferase Z-score” value is reported as inactive: -4.74. `NNC(=O)c1ccncc1` [Isoniazid (Tubizid)] was tested, and the “secreted FVIII-Gluc luciferase Z-score” value was inactive: -1.21. With `CC1(C)S[C@@H]2[C@H](NC(=O)C(C(=O)O)c3ccccc3)C(=O)N2[C@H]1C(=O)O` (some centres not stated) [Carbenicillin disodium] the “secreted FVIII-Gluc luciferase Z-score” value was inactive: -0.446. In the case of `CO[C@H]1C[C@@H]2CC[C@@H](C)[C@@](O)(O2)C(=O)C(=O)N2CCCC[C@H]2C(=O)O[C@H]([C@H](C)C[C@@H]2CC[C@@H](O)[C@H](OC)C2)CC(=O)[C@H](C)/C=C(\C)[C@@H](O)[C@@H](OC)C(=O)[C@H](C)C[C@H](C)/C=C/C=C/C=C/1C` [Rapamycin (Sirolimus)], the “secreted FVIII-Gluc luciferase Z-score” value is reported as inactive: -1.34. In the case of `N=C(N)NC(=O)c1nc(Cl)c(N)nc1N` [Amiloride hydrochloride (Midamor)], the “secreted FVIII-Gluc luciferase Z-score” value is reported as inactive: -0.942. For `CCCCNC(=O)NS(=O)(=O)c1ccc(C)cc1` [Tolbutamide], the “secreted FVIII-Gluc luciferase Z-score” value was inactive: -0.575. With `CCOC(=O)c1ncn2c1CN(C)C(=O)c1cc(F)ccc1-2` [Flumazenil] the “secreted FVIII-Gluc luciferase Z-score” value was inactive: -1.38. With `OC(CNCC(O)C1CCc2cc(F)ccc2O1)C1CCc2cc(F)ccc2O1` (configuration not stated) [Nebivolol (Bystolic)] the “secreted FVIII-Gluc luciferase Z-score” value was inactive: -4.21. In the case of `CCn1cc(C(=O)O)c(=O)c2cc(F)c(N3CCN(C)CC3)cc21` [Pefloxacin mesylate], the “secreted FVIII-Gluc luciferase Z-score” value is reported as inactive: 1.96. `CCOc1cc(N)c(Cl)cc1C(=O)NCC1CN(Cc2ccc(F)cc2)CCO1` (configuration not stated) [Mosapride citrate] was tested, and the “secreted FVIII-Gluc luciferase Z-score” value was inactive: -1.48. With `N=C(N)Nc1ccc(C(=O)Oc2ccc3cc(C(=N)N)ccc3c2)cc1` [Nafamostat mesylate] the “secreted FVIII-Gluc luciferase Z-score” value was inactive: -3.1. `Nc1nc2c(ncn2COC(CO)CO)c(=O)[nH]1` [Ganciclovir] was tested, and the “secreted FVIII-Gluc luciferase Z-score” value was inactive: -1.59. With `CC/C(=C(\c1ccccc1)c1ccc(OCCN(C)C)cc1)c1ccccc1` [Tamoxifen Citrate (Nolvadex)] the “secreted FVIII-Gluc luciferase Z-score” value was active: 6.14. For `CC(C)c1nc(CN(C)C(=O)N[C@@H](CCN2CCOCC2)C(=O)N[C@H](CC[C@H](Cc2ccccc2)NC(=O)OCc2cncs2)Cc2ccccc2)cs1` [Cobicistat (GS-9350)], the “secreted FVIII-Gluc luciferase Z-score” value was inactive: -3.84. `CC1(C)S[C@@H]2[C@H](NC(=O)Cc3ccccc3)C(=O)N2[C@H]1C(=O)O` [Penicillin G Sodium] was tested, and the “secreted FVIII-Gluc luciferase Z-score” value was inactive: 0.861. `CCc1cc(C(N)=S)ccn1` [Ethionamide] was tested, and the “secreted FVIII-Gluc luciferase Z-score” value was inactive: -1.84. With `CCC(C)(C)c1ccc(CC(C)CN2C[C@@H](C)O[C@@H](C)C2)cc1` (some centres not stated) [Amorolfine Hydrochloride] the “secreted FVIII-Gluc luciferase Z-score” value was inactive: 1.6. In the case of `COc1ccc(C(=O)CC(=O)c2ccc(C(C)(C)C)cc2)cc1` [Avobenzone (Parsol 1789)], the “secreted FVIII-Gluc luciferase Z-score” value is reported as inactive: 0.00486. For `C[C@]12C=CC(=O)C=C1CC[C@@H]1[C@@H]2[C@@H](O)C[C@@]2(C)[C@H]1CC[C@]2(O)C(=O)CO` [Prednisolone (Hydroretrocortine)], the “secreted FVIII-Gluc luciferase Z-score” value was active: 13.5.
